Measurements reported in PubChem BioAssay AID504793 (Drosophila RNAi Screening Center, 2011)

Test: 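Whole-genome screen for parts of the DNA damage checkpoint at G2/M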 (primary screen)
Cells: Drosophila S2R+ cells
Reagent: long dsRNA against Drosophila genes, about 0.25 µg dsRNA per well
Duration: 4 days of dsRNA, then 4 hours of drug before read-out
Challenge: doxorubicin 0.5 µM for 4 hours to cause double-strand breaks, in cells also given a low, harmless dose of dsRNA against nbs to sensitise the assay
Detection: 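Per-well count of mitotic cells stained for phospho-histone H3 after doxorubicin exposure, used as mitotic index; counts are raw and not normalised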
Direction: mitotic cells: higher = more cells in mitosis, weaker G2 arrest
Hit rule: 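a call needs confirmation in secondary tests, with other dsRNAs and a check of mitotic timing without damage, not just a high primary count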
Calls: active = confirmed in follow-up tests; inactive = not confirmed
The screen tested about 23,000 reagents; this is an unselected part of those that have a named target and a result. In the full data, 62 (0.27%) got an active call. 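Calls come from follow-up tests whose scores are not deposited, so confirmed genes may have low counts here; counts are not normalised per plate.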 The raw values are shown without normalisation.

{"Gene":"CG31115","PubChem SID":"SID104193484","mitotic cells, replicate 1":19,"outcome":"inactive"}
{"Gene":"CG31115","PubChem SID":"SID104204641","mitotic cells, replicate 1":5,"outcome":"inactive"}
{"Gene":"Crk (Crk oncogene)","PubChem SID":"SID104196955","mitotic cells, replicate 1":3,"outcome":"inactive"}
{"Gene":"MED19 (Mediator complex subunit 19)","PubChem SID":"SID104190308","mitotic cells, replicate 1":4,"outcome":"inactive"}
{"Gene":"MED19 (Mediator complex subunit 19)","PubChem SID":"SID104202746","mitotic cells, replicate 1":3,"outcome":"inactive"}
{"Gene":"CG2209","PubChem SID":"SID104199635","mitotic cells, replicate 1":12,"outcome":"inactive"}
{"Gene":"Or67c (Odorant receptor 67c)","PubChem SID":"SID104191034","mitotic cells, replicate 1":3,"outcome":"inactive"}
{"Gene":"Zcchc7 (Zinc finger CCHC-type containing 7)","PubChem SID":"SID104190891","mitotic cells, replicate 1":8,"outcome":"inactive"}
{"Gene":"Zcchc7 (Zinc finger CCHC-type containing 7)","PubChem SID":"SID104204016","mitotic cells, replicate 1":5,"outcome":"inactive"}
{"Gene":"BomT3 (Bomanin Tailed 3)","PubChem SID":"SID104195663","mitotic cells, replicate 1":8,"outcome":"inactive"}
{"Gene":"BomT3 (Bomanin Tailed 3)","PubChem SID":"SID104204123","mitotic cells, replicate 1":9,"outcome":"inactive"}
{"Gene":"Cyp6a21 (Cytochrome P450 6a21)","PubChem SID":"SID104187173","mitotic cells, replicate 1":3,"outcome":"inactive"}
{"Gene":"CG32548","PubChem SID":"SID104199419","mitotic cells, replicate 1":9,"outcome":"inactive"}
{"Gene":"CG32548","PubChem SID":"SID104199774","mitotic cells, replicate 1":11,"outcome":"inactive"}
{"Gene":"CG32548","PubChem SID":"SID104207401","mitotic cells, replicate 1":3,"outcome":"inactive"}
{"Gene":"Eglp4 (Entomoglyceroporin 4)","PubChem SID":"SID104184230","mitotic cells, replicate 1":3,"outcome":"inactive"}
{"Gene":"Eglp4 (Entomoglyceroporin 4)","PubChem SID":"SID104204535","mitotic cells, replicate 1":9,"outcome":"inactive"}
{"Gene":"CG16704","PubChem SID":"SID104180267","outcome":"inactive"}
{"Gene":"CG14971","PubChem SID":"SID104188222","mitotic cells, replicate 1":5,"outcome":"inactive"}
{"Gene":"CG13230","PubChem SID":"SID104186142","mitotic cells, replicate 1":4,"outcome":"inactive"}
{"Gene":"CG13230","PubChem SID":"SID104205322","mitotic cells, replicate 1":7,"outcome":"inactive"}
{"Gene":"Kaz-m1 (Kazal-type protease inhibitor m1)","PubChem SID":"SID104196782","mitotic cells, replicate 1":10,"outcome":"inactive"}

Continued (3 carried over from the part before).
{"Gene":"CG13230","PubChem SID":"SID104186142","mitotic cells, replicate 1":4,"outcome":"inactive"}
{"Gene":"CG13230","PubChem SID":"SID104205322","mitotic cells, replicate 1":7,"outcome":"inactive"}
{"Gene":"Kaz-m1 (Kazal-type protease inhibitor m1)","PubChem SID":"SID104196782","mitotic cells, replicate 1":10,"outcome":"inactive"}
{"Gene":"CG31998","PubChem SID":"SID104196929","mitotic cells, replicate 1":24,"outcome":"inactive"}
{"Gene":"CG31998","PubChem SID":"SID104196930","mitotic cells, replicate 1":14,"outcome":"inactive"}
{"Gene":"CG3739","PubChem SID":"SID104195302","mitotic cells, replicate 1":7,"outcome":"inactive"}
{"Gene":"ida (imaginal discs arrested)","PubChem SID":"SID104187955","mitotic cells, replicate 1":101,"outcome":"inactive"}
{"Gene":"Ate1 (Arginyltransferase 1)","PubChem SID":"SID104185717","mitotic cells, replicate 1":9,"outcome":"inactive"}
{"Gene":"Ate1 (Arginyltransferase 1)","PubChem SID":"SID104203362","mitotic cells, replicate 1":7,"outcome":"inactive"}
{"Gene":"CG13920","PubChem SID":"SID104188181","mitotic cells, replicate 1":5,"outcome":"inactive"}
{"Gene":"CG14014","PubChem SID":"SID104182137","mitotic cells, replicate 1":52,"outcome":"inactive"}
{"Gene":"CG1632","PubChem SID":"SID104197350","mitotic cells, replicate 1":9,"outcome":"inactive"}
{"Gene":"CG1632","PubChem SID":"SID104197902","mitotic cells, replicate 1":7,"outcome":"inactive"}
{"Gene":"Mipp1 (Multiple inositol polyphosphate phosphatase 1)","PubChem SID":"SID104191015","mitotic cells, replicate 1":7,"outcome":"inactive"}
{"Gene":"Frq2 (Frequenin 2)","PubChem SID":"SID104200037","mitotic cells, replicate 1":11,"outcome":"inactive"}
{"Gene":"Frq2 (Frequenin 2)","PubChem SID":"SID104204581","mitotic cells, replicate 1":8,"outcome":"inactive"}
